Source: publication PMC3808315
Results are given in words; binding and its absence hold for the method and conditions named. A result given as binding can be weak or reduced; the word gives no strength. For part of these data: Where a sequence is shown, tags or fusion partners need not be part of it.

Molecular target: GmbZIP123 fused to the GAL4 DNA-binding domain (pBD-GmbZIP123) (soybean (Glycine max)) (UniProt Q0GPF9)
Assay: two-hybrid; GAL4 BD-GmbZIP123 co-expressed with AtbZIP10 or AtbZIP25 from pAUR123 (no GAL4 AD) in yeast strain YRG2; HIS3 reporter, growth on SD/-His/-Trp medium; empty vector as control

binding | Binder
binds | AtbZIP25 expressed from pAUR123 (without GAL4 activation domain) (protein, UniProt Q9M1G6 1-403) MHIVFSVDDLTESFWPVPAPAPSPGSSSTPSPTQNVADGMTRSQSEWAFHRLINELSGSDSSPTTNTIERSPPPVQSLSRLEETVDETEDVVEIQKPQNHRRLPVDDQGKNRNRAPSSDPVDSSAPVVVDPNQYHAILKSKLELACAAVARRVGTVKPEDSSASASNQKQAQGSIVAQTSPGASSVRFSPTTSTQKKPDVPARQTSISSRDDSDDDDLDGDADNGDPTDVKRARRMLSNRESARRSRRRKQEQMNEFDTQVGQLRAEHSTLINRLSDMNHKYDAAAVDNRILRADIETLRTKVKMAEETVKRVTGVNPLHWSRPNMGIPFSNTPSASSSIPPNSNHILKPANSSTNTSAGLAQNQRVETANFLPEQVNREGMQNPFAPDSNLYETLPHWNHKH
binds | AtbZIP10 expressed from pAUR123 (without GAL4 activation domain) (protein, UniProt O22763 1-411) MNSIFSIDDFSDPFWETPPIPLNPDSSKPVTADEVSQSQPEWTFEMFLEEISSSAVSSEPLGNNNNAIVGVSSAQSLPSVSGQNDFEDDSRFRDRDSGNLDCAAPMTTKTVIVDSDDYRRVLKNKLETECATVVSLRVGSVKPEDSTSSPETQLQPVQSSPLTQGELGVTSSLPAEVKKTGVSMKQVTSGSSREYSDDEDLDEENETTGSLKPEDVKKSRRMLSNRESARRSRRRKQEQTSDLETQVNDLKGEHSSLLKQLSNMNHKYDEAAVGNRILKADIETLRAKVKMAEETVKRVTGMNPMLLGRSSGHNNNNRMPITGNNRMDSSSIIPAYQPHSNLNHMSNQNIGIPTILPPRLGNNFAAPPSQTSSPLQRIRNGQNHHVTPSANPYGWNTEPQNDSAWPKKCVD

Molecular target: GmbZIP123 fused to the GAL4 DNA-binding domain (pBD-GmbZIP123) (soybean (Glycine max)) (UniProt Q0GPF9)
Assay: two-hybrid; GAL4 BD-GmbZIP123 with GAL4 AD fusions of Arabidopsis group C bZIP TFs in yeast strain YRG2; HIS3 reporter, growth on His-depleted medium; BD empty vector as negative control

binding | Binder
binds | AtbZIP25 fused to the GAL4 activation domain (pAD-AtbZIP25) (protein, UniProt Q9M1G6 1-403) MHIVFSVDDLTESFWPVPAPAPSPGSSSTPSPTQNVADGMTRSQSEWAFHRLINELSGSDSSPTTNTIERSPPPVQSLSRLEETVDETEDVVEIQKPQNHRRLPVDDQGKNRNRAPSSDPVDSSAPVVVDPNQYHAILKSKLELACAAVARRVGTVKPEDSSASASNQKQAQGSIVAQTSPGASSVRFSPTTSTQKKPDVPARQTSISSRDDSDDDDLDGDADNGDPTDVKRARRMLSNRESARRSRRRKQEQMNEFDTQVGQLRAEHSTLINRLSDMNHKYDAAAVDNRILRADIETLRTKVKMAEETVKRVTGVNPLHWSRPNMGIPFSNTPSASSSIPPNSNHILKPANSSTNTSAGLAQNQRVETANFLPEQVNREGMQNPFAPDSNLYETLPHWNHKH
binds | AtbZIP10 fused to the GAL4 activation domain (pAD-AtbZIP10) (protein, UniProt O22763 1-411) MNSIFSIDDFSDPFWETPPIPLNPDSSKPVTADEVSQSQPEWTFEMFLEEISSSAVSSEPLGNNNNAIVGVSSAQSLPSVSGQNDFEDDSRFRDRDSGNLDCAAPMTTKTVIVDSDDYRRVLKNKLETECATVVSLRVGSVKPEDSTSSPETQLQPVQSSPLTQGELGVTSSLPAEVKKTGVSMKQVTSGSSREYSDDEDLDEENETTGSLKPEDVKKSRRMLSNRESARRSRRRKQEQTSDLETQVNDLKGEHSSLLKQLSNMNHKYDEAAVGNRILKADIETLRAKVKMAEETVKRVTGMNPMLLGRSSGHNNNNRMPITGNNRMDSSSIIPAYQPHSNLNHMSNQNIGIPTILPPRLGNNFAAPPSQTSSPLQRIRNGQNHHVTPSANPYGWNTEPQNDSAWPKKCVD
binds | AtbZIP63 fused to the GAL4 activation domain (pAD-AtbZIP63) (protein, UniProt B9DGI8 1-314) MEKVFSDEEISGNHHWSVNGMTSLNRSASEWAFNRFIQESSAAADDGESTTACGVSVSSPPNVPVDSEEYRAFLKSKLNLACAAVAMKRGTFIKPQDTSGRSDNGGANESEQASLASSKATPMMSSAITSGSELSGDEEEADGETNMNPTNVKRVKRMLSNRESARRSRRRKQAHLSELETQVSQLRVENSKLMKGLTDVTQTFNDASVENRVLKANIETLRAKVKMAEETVKRLTGFNPMFHNMPQIVSTVSLPSETSNSPDTTSSQVTTPEIISSGNKGKALIGCKMNRTASMRRVESLEHLQKRIRSVGDQ
binds | AtbZIP9 fused to the GAL4 activation domain (pAD-AtbZIP9) (protein, UniProt Q9FUD3 1-277) MDNHTAKDIGMKRSASELALQEYLTTSPLDPCFDLMNRDYTCELRDSLLWSEGLFPAGPFRDAQSSICENLSADSPVSANKPEVRGGVRRTTSGSSHVNSDDEDAETEAGQSEMTNDPNDLKRIRRMNSNRESAKRSRRRKQEYLVDLETQVDSLKGDNSTLYKQLIDATQQFRSAGTNNRVLKSDVETLRVKVKLAEDLVARGSLTSSLNQLLQTHLSPPSHSISSLHYTGNTSPAITVHSDQSLFPGMTLSGQNSSPGLGNVSSEAVSCVSDIWP
